# Test results published in PubChem BioAssay AID248 (DTP/NCI, 2004).
# The list shows only some results of the screen, not a fair sample: it gathers tests that were run many times, whatever their T/C, doses with no T/C, and many T/C values between a quarter and a half above the control. Further doses and runs are listed elsewhere. T/C is the treated group as % of the vehicle group. Some doses have a count of surviving animals in place of a T/C: the source files T/C as zero there, which appears to mark a toxic dose or a test without result, not a measured value. Some doses without a T/C left all or most animals alive at the check, yet need not have been tolerated: survival well below the control is almost never listed, so the zero probably covers shortened survival too. Survivors were counted at the toxicity check, usually on the fifth day, unless a day is given; later deaths do not show. Schedules are NCI's codes, read here as Q, the interval in days (D) or hours (H), X, the number of doses. Some schedule codes hold Z or #, which are not explained here. Some doses were run more than once; the values are given in rising order. Where survival is the endpoint, this PubChem deposit counts one and a half times the control or more as active, and values a quarter to a half above the control carry no call in these data; other NCI protocols may use other cut-offs. Some T/C values carry the count of animals alive at the toxicity check (mostly the fifth day); where none is given, no animal had died by that day.
# Test system: L1210 leukemia ip in BDF1 mice, survival T/C
# Test: NCI In Vivo Anticancer Drug Screen. Data for tumor model L1210 Leukemia (intraperitoneal) in B6D2F1 (BDF1) mice
# Conditions: T/C endpoint: mean survival time, higher T/C = longer survival
# [1] = dose: 100.0 mg/kg/injection, schedule: Q01DX009 (ip), vehicle: Klucel (hydroxypropylcellulose) (HPC)
# [2] = dose: 100.0 mg/kg/injection, schedule: Q04DX003 (ip), vehicle: Klucel (hydroxypropylcellulose) (HPC)
# [3] = dose: 200.0 mg/kg/injection, schedule: Q01DX009 (ip), vehicle: Klucel (hydroxypropylcellulose) (HPC)
# [4] = dose: 200.0 mg/kg/injection, schedule: Q04DX003 (ip), vehicle: Klucel (hydroxypropylcellulose) (HPC)
# [5] = dose: 400.0 mg/kg/injection, schedule: Q04DX003 (ip), vehicle: Klucel (hydroxypropylcellulose) (HPC)
# [6] = dose: 100.0 mg/kg/injection, schedule: Q04DX002 (ip), vehicle: Klucel (hydroxypropylcellulose) (HPC)
# [7] = dose: 200.0 mg/kg/injection, schedule: Q04DX002 (ip), vehicle: Klucel (hydroxypropylcellulose) (HPC)
# [8] = dose: 400.0 mg/kg/injection, schedule: Q04DX002 (ip), vehicle: Klucel (hydroxypropylcellulose) (HPC)
# [9] = dose: 400.0 mg/kg/injection, schedule: Q04DX003 (ip), vehicle: saline with Tween-80
# [10] = dose: 50.0 mg/kg/injection, schedule: Q01DX009 (ip), vehicle: Klucel (hydroxypropylcellulose) (HPC)
# [11] = dose: 25.0 mg/kg/injection, schedule: Q01DX009 (ip), vehicle: Klucel (hydroxypropylcellulose) (HPC)
# [12] = dose: 100.0 mg/kg/injection, schedule: Q01DX Z (ip), vehicle: carboxymethylcellulose (CMC)
# [13] = dose: 400.0 mg/kg/injection, schedule: Q01DX001 (ip), vehicle: saline with Tween-80
# [14] = dose: 100.0 mg/kg/injection, schedule: Q01DX009 (ip), vehicle: saline with Tween-80
compound,measurement,setting,value
CCOC(=O)/C=C(\CBr)OC,survivor count,[1],0 of 6
same,survivor count,[2],1 of 6
same,survivor count,[3],0 of 6
same,survivor count,[4],0 of 6
same,survivor count,[5],0 of 6
S=C1NC(c2cccc(Cl)c2)N2C(=S)NC(c3cccc(Cl)c3)N12 (configuration not stated),survivor count,"dose: 100.0 mg/kg/injection, schedule: Q01DX009 (ip), vehicle: gum acacia",6 of 6
COC1OCN(C)CC1(C)C (configuration not stated),survivor count,[5],0 of 6
N#CC1(C#N)OC1c1ccccc1Cl (configuration not stated),survivor count,"dose: 40.0 mg/kg/injection, schedule: Q04DX002 (ip), vehicle: Klucel (hydroxypropylcellulose) (HPC)",1 of 3
same,survivor count,[6],0 of 3
same,survivor count,[7],0 of 3
same,survivor count,[8],0 of 3
[Cl][Pd][Cl].[NH-]CCN1CC1,survivor count,"dose: 200.0 mg/kg/injection, schedule: Q04DX002 (ip), vehicle: saline",1 of 3
same,survivor count,"dose: 400.0 mg/kg/injection, schedule: Q04DX002 (ip), vehicle: saline",0 of 3
CCCN([Si](C)(C)C)[Si](C)(C)C,survivor count,[9],3 of 6
O=NN(CCCl)C(=O)N[C@H]1CCCC[C@H]1Cl,T/C,"dose: 8.0 mg/kg/injection, schedule: Q01DX001 (ip), vehicle: carboxymethylcellulose (CMC)",127 % of control
same,T/C,"dose: 18.0 mg/kg/injection, schedule: Q01DX001 (ip), vehicle: carboxymethylcellulose (CMC)",127 % of control
same,T/C,"dose: 26.0 mg/kg/injection, schedule: Q01DX001 (ip), vehicle: carboxymethylcellulose (CMC)",144 % of control
same,survivor count,"dose: 250.0 mg/kg/injection, schedule: Q01DX001 (ip), vehicle: carboxymethylcellulose (CMC)",6 of 6
same,survivor count,"dose: 375.0 mg/kg/injection, schedule: Q01DX001 (ip), vehicle: carboxymethylcellulose (CMC)",5 of 6
same,survivor count,"dose: 500.0 mg/kg/injection, schedule: Q01DX001 (ip), vehicle: carboxymethylcellulose (CMC)",6 of 6
Clc1ncc(Br)c(Cl)n1,survivor count,[10],3 of 6
same,survivor count,[1],2 of 6
same,survivor count,[3],1 of 6
same,survivor count,"dose: 400.0 mg/kg/injection, schedule: Q04DX003 (ip), vehicle: other",2 of 6
CCCCCCCCN1CCC(c2cccc(O)c2)C(C(=O)CC)C1 (configuration not stated),survivor count,"dose: 12.0 mg/kg/injection, schedule: Q01DX009 (ip), vehicle: Klucel (hydroxypropylcellulose) (HPC)",1 of 3
same,T/C,[11],"94 [2 of 3 alive], 96, 102 % of control"
same,survivor count,[11],3 of 3
same,survivor count,[10],3 of 3
same,survivor count,[1],0 of 3 and 1 of 3
same,survivor count,[6],2 of 3
same,survivor count,[7],1 of 3
same,survivor count,[8],0 of 3
c1ccc(N/N=C2/CCN3CCCc4cccc2c43)cc1,survivor count,"dose: 12.5 mg/kg/injection, schedule: Q01DX009 (ip), vehicle: DMSO",6 of 6
same,survivor count,"dose: 50.0 mg/kg/injection, schedule: Q01DX009 (ip), vehicle: DMSO",5 of 6
same,survivor count,"dose: 200.0 mg/kg/injection, schedule: Q04DX003 (ip), vehicle: gum acacia",0 of 6
same,survivor count,"dose: 400.0 mg/kg/injection, schedule: Q04DX003 (ip), vehicle: gum acacia",0 of 6
Cc1[nH]c(=O)[nH]c(=O)c1/C=C/C(=O)NC(CO)CC(C)C (configuration not stated),T/C,"dose: 50.0 mg/kg/injection, schedule: Q01DX009 (ip), vehicle: saline",125 % of control [5 of 6 alive]
same,T/C,"dose: 200.0 mg/kg/injection, schedule: Q01DX009 (ip), vehicle: saline",125 % of control
same,survivor count,"dose: 400.0 mg/kg/injection, schedule: Q01DX009 (ip), vehicle: saline",3 of 6
COc1ccc2c(OC)c3ccoc3nc2c1OC,survivor count,[12],6 of 6
same,survivor count,"dose: 200.0 mg/kg/injection, schedule: Q01DX Z (ip), vehicle: carboxymethylcellulose (CMC)",6 of 6
CCC(c1ccc2cc(OC)ccc2c1)C(C)(C)C(=O)F (configuration not stated),survivor count,"dose: 100.0 mg/kg/injection, schedule: Q01DX009 (ip), vehicle: saline",0 of 6
same,survivor count,"dose: 200.0 mg/kg/injection, schedule: Q01DX001 (ip), vehicle: steroid suspending solution",2 of 4
same,survivor count,"dose: 200.0 mg/kg/injection, schedule: Q04DX003 (ip), vehicle: acetone",0 of 6
same,survivor count,"dose: 400.0 mg/kg/injection, schedule: Q01DX001 (ip), vehicle: steroid suspending solution",1 of 4
same,survivor count,"dose: 400.0 mg/kg/injection, schedule: Q04DX003 (ip), vehicle: acetone",0 of 6
C(=N\N=C\c1ccco1)/c1ccco1,survivor count,"dose: 200.0 mg/kg/injection, schedule: Q01DX001 (ip), vehicle: saline with Tween-80",2 of 6
same,survivor count,[13],0 of 3 and 0 of 6
NC(=S)N/N=C/c1ccc[nH]1,survivor count,[13],3 of 6
O=C(NC1CCCCC1)Sc1ccc(Cl)cc1,survivor count,[1],3 of 6
same,survivor count,"dose: 150.0 mg/kg/injection, schedule: Q01DX009 (ip), vehicle: Klucel (hydroxypropylcellulose) (HPC)",3 of 6
same,survivor count,[4],1 of 6
same,survivor count,"dose: 225.0 mg/kg/injection, schedule: Q01DX009 (ip), vehicle: Klucel (hydroxypropylcellulose) (HPC)",2 of 6
same,survivor count,"dose: 335.0 mg/kg/injection, schedule: Q01DX009 (ip), vehicle: Klucel (hydroxypropylcellulose) (HPC)",0 of 6
same,survivor count,[5],0 of 6
C[N+](C)(C)CCCC#CC[N+]1(C)CCOCC1,T/C,"dose: 5.0 mg/kg/injection, schedule: Q01DX009 (ip), vehicle: saline",146 % of control
same,T/C,"dose: 23.0 mg/kg/injection, schedule: Q01DX009 (ip), vehicle: saline",136 % of control
same,T/C,"dose: 39.0 mg/kg/injection, schedule: Q07DX009 (ip), vehicle: saline",140 % of control
O=C(/C=C/c1ccccc1)NC(=S)Nc1ccccc1F,survivor count,"dose: 50.0 mg/kg/injection, schedule: Q01DX009 (ip), vehicle: saline with Tween-80",3 of 3
same,T/C,[14],86 and 90 % of control [5 of 6 alive]
same,survivor count,[14],3 of 3
same,survivor count,"dose: 200.0 mg/kg/injection, schedule: Q01DX009 (ip), vehicle: saline with Tween-80",6 of 6
same,survivor count,"dose: 400.0 mg/kg/injection, schedule: Q01DX009 (ip), vehicle: saline with Tween-80",4 of 6
same,survivor count,"dose: 400.0 mg/kg/injection, schedule: Q04DX002 (ip), vehicle: alcohol",3 of 3
O=[As](O)(c1cccc(Cl)c1)C1CCCCC1O (configuration not stated),survivor count,"dose: 100.0 mg/kg/injection, schedule: Q04DX003 (ip), vehicle: saline with Tween-80",0 of 6 and 2 of 6
same,survivor count,"dose: 200.0 mg/kg/injection, schedule: Q04DX003 (ip), vehicle: saline with Tween-80",0 of 6
same,survivor count,[9],0 of 6
CCOC(=O)c1c(-c2ccc([N+](=O)[O-])cc2)c(/C=N\O)n(-c2ccccc2)c1C,survivor count,[8],3 of 3
O=C(O)c1cc(-c2ccc(Cl)cc2)nc2c(Cl)cccc12,survivor count,[2],1 of 6
same,survivor count,[4],2 of 6
same,survivor count,[5],6 of 6
c1ccc2c(c1)Cc1cc3ccccc3nc1-2,survivor count,[14],6 of 6
CC1CN(C(=O)CCl)c2ccccc2N1C(=O)CCl (configuration not stated),survivor count,"dose: 12.5 mg/kg/injection, schedule: Q01DX Z (ip), vehicle: carboxymethylcellulose (CMC)",3 of 6
same,survivor count,"dose: 25.0 mg/kg/injection, schedule: Q01DX Z (ip), vehicle: carboxymethylcellulose (CMC)",0 of 6
same,survivor count,"dose: 50.0 mg/kg/injection, schedule: Q01DX Z (ip), vehicle: carboxymethylcellulose (CMC)",0 of 6
same,survivor count,[12],0 of 6
O=c1[nH]c(=O)n(C2CC(O)C(CO)O2)cc1Br (configuration not stated),T/C,"dose: 1200.0 mg/kg/injection, schedule: Q01DX009 (ip), vehicle: carboxymethylcellulose (CMC)",135 % of control
